# According to the supplement of paper PMC7666118:
# Chains of the proteins cited; added tags and fusions are not shown. Lines headed by an entry give the natural chain unless they say otherwise; changes in a name come on top.
# UniProt Q8N183: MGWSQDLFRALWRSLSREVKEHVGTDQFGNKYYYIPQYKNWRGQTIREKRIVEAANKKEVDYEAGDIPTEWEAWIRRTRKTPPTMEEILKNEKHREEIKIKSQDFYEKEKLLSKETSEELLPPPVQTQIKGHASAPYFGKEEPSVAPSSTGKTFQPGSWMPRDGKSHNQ
# UniProt Q96I59: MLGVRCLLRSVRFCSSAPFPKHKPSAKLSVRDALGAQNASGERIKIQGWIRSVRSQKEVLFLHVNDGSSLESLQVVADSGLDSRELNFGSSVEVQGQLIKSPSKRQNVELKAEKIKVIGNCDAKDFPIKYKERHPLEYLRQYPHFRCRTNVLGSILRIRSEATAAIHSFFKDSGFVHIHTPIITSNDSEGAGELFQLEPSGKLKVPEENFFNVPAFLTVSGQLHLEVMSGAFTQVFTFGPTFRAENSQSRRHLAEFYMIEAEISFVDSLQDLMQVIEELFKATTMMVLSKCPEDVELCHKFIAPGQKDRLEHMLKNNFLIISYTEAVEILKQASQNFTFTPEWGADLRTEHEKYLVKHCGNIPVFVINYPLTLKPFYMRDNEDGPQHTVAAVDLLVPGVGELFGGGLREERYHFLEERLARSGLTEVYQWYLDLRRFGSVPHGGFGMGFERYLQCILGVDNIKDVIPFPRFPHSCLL
# UniProt P14649: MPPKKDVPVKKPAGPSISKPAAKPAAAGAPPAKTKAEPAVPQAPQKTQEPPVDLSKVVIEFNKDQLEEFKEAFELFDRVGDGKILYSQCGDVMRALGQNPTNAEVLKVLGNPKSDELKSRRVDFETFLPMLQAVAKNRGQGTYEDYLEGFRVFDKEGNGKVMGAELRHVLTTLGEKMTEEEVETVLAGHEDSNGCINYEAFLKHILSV
# UniProt Q9BSC4: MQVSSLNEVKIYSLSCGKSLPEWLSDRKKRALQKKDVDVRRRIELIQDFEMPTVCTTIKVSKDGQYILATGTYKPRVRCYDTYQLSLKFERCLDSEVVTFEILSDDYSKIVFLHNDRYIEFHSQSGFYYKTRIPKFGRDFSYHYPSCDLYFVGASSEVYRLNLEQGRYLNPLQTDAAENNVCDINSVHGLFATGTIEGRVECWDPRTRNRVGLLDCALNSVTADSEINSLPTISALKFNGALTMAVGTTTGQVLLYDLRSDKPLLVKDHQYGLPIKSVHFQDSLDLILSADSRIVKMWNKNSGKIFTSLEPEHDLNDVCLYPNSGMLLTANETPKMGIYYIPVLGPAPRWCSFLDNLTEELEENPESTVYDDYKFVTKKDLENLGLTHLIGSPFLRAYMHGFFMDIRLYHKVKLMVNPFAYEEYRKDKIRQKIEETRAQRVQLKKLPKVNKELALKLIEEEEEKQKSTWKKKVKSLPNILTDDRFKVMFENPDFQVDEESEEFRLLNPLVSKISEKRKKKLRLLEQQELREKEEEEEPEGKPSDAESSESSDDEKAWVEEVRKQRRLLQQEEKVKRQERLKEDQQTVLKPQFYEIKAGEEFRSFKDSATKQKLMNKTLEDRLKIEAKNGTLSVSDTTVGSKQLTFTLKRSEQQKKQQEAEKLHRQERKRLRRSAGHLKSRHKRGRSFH
# UniProt Q99747: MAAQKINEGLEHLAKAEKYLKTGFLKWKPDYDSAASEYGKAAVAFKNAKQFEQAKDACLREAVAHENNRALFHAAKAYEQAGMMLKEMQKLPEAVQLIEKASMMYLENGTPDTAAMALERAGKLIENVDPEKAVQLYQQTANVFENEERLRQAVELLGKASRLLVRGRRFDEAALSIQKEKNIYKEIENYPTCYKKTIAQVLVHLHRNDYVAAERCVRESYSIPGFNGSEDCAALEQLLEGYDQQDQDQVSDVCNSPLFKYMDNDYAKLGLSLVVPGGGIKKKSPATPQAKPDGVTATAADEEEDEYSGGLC
# UniProt Q6ZNJ1: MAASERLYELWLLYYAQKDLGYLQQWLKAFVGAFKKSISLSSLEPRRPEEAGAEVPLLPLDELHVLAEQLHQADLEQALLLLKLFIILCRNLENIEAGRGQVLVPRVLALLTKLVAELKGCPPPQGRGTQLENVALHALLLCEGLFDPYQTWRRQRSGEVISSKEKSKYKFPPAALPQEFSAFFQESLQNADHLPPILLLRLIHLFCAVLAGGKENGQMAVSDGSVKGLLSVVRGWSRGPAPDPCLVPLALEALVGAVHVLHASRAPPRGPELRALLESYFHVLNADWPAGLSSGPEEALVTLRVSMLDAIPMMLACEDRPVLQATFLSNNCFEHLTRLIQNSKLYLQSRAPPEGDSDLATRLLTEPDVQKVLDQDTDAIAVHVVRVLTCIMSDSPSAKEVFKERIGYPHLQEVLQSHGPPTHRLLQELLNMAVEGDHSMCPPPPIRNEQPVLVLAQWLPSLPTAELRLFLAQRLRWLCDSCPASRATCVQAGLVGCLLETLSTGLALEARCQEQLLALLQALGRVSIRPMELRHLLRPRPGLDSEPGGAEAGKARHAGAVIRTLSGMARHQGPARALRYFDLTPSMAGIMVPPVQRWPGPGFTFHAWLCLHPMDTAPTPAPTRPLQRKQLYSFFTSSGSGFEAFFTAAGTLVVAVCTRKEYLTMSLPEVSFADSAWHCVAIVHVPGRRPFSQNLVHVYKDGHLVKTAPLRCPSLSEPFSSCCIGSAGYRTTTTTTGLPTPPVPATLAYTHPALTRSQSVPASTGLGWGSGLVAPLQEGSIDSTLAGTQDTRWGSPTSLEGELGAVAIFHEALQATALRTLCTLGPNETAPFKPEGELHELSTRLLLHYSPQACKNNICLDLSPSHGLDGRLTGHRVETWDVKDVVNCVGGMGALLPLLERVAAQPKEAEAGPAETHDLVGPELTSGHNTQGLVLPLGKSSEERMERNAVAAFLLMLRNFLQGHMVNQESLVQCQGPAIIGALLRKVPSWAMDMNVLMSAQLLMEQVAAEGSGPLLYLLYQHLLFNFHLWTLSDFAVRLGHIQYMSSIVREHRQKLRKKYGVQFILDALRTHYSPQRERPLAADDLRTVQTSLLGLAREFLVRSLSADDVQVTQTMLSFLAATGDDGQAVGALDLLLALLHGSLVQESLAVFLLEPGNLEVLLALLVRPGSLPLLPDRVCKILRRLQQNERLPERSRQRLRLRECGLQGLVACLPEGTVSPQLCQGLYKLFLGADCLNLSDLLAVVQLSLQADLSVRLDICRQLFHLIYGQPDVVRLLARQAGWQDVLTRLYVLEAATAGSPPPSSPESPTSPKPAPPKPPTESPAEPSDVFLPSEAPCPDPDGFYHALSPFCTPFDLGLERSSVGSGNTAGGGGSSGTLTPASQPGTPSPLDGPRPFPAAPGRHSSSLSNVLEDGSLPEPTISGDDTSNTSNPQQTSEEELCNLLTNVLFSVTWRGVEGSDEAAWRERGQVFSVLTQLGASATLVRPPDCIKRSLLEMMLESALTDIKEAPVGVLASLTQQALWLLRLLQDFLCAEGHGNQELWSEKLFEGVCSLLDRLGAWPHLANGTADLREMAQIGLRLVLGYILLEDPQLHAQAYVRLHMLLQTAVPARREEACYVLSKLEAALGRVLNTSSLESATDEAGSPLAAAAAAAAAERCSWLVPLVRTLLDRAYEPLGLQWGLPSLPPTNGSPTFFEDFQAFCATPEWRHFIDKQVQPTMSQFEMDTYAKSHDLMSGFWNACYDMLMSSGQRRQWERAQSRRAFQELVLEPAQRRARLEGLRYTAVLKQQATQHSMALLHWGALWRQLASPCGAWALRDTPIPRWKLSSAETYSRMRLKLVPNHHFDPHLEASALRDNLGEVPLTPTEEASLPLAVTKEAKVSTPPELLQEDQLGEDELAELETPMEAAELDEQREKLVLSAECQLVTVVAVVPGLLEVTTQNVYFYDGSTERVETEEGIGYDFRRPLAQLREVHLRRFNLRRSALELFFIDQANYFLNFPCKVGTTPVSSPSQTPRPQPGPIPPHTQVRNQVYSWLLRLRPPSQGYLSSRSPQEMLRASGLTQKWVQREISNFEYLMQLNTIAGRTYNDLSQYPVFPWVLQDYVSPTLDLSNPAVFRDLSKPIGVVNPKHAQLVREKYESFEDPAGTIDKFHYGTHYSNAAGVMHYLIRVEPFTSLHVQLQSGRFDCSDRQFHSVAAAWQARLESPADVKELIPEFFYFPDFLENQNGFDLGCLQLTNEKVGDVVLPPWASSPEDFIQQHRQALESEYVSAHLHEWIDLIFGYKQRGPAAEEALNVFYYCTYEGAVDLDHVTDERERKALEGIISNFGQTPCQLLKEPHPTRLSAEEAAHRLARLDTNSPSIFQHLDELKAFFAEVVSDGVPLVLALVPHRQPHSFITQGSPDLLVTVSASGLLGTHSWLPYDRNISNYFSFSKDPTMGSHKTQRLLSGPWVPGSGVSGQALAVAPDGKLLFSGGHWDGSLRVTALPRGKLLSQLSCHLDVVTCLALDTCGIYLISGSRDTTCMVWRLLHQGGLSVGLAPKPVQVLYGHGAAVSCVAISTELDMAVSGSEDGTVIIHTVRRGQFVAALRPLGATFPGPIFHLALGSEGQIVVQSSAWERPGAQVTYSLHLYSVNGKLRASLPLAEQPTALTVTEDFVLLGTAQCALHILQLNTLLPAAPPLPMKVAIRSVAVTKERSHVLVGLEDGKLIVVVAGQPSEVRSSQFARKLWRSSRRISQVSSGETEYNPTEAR
# UniProt Q12986: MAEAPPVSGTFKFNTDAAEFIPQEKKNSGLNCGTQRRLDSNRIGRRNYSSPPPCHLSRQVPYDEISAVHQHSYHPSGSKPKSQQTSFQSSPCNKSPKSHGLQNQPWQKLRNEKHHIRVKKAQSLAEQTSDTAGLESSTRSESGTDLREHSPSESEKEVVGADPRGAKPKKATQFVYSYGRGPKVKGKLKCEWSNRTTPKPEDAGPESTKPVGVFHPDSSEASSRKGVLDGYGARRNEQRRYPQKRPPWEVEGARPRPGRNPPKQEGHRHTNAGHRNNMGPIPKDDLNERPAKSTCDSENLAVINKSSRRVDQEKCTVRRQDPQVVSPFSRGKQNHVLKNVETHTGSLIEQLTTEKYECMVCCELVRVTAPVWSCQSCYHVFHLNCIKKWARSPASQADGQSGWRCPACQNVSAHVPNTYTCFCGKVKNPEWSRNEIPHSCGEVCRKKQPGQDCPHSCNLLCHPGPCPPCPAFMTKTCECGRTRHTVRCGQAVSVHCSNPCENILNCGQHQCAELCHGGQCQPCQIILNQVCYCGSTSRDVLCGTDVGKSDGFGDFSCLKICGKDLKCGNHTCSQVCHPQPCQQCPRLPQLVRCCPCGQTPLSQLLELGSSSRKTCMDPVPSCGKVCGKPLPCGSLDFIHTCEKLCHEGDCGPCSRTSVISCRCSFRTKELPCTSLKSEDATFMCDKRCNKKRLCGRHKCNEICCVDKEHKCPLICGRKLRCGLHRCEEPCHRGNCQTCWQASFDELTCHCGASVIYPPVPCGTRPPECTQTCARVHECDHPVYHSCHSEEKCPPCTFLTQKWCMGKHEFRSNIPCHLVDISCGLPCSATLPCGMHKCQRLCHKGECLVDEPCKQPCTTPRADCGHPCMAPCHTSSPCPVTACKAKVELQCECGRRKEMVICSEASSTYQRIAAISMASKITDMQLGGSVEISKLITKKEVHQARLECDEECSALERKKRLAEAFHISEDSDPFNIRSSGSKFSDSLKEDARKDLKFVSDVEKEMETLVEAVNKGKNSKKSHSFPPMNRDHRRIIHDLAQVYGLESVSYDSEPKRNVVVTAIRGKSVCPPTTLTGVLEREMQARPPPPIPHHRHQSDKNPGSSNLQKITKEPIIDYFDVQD
# UniProt Q9NR45: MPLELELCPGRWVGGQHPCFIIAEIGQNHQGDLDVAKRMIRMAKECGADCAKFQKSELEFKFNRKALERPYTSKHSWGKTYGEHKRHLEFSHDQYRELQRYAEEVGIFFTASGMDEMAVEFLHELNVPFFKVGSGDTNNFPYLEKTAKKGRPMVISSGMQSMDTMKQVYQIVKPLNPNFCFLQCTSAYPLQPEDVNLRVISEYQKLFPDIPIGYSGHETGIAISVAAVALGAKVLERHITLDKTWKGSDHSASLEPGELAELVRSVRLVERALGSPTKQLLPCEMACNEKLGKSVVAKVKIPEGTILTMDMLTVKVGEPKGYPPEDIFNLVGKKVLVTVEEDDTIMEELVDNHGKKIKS
# UniProt Q15233: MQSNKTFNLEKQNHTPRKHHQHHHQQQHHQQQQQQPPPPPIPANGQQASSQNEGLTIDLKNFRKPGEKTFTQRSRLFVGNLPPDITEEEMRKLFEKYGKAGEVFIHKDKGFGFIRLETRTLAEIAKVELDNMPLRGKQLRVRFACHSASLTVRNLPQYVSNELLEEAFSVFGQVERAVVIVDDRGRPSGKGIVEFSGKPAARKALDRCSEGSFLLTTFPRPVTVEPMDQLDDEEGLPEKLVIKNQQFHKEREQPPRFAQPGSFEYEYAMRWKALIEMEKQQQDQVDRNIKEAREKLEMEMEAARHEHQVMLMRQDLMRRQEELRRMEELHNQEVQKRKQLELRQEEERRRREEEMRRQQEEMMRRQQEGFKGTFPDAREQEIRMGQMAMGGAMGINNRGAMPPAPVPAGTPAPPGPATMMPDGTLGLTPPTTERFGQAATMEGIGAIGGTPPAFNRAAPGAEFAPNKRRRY
# The list shows a part of the results.
# Compound: COc1ccc(Cn2ccc3ccc(C(=O)NO)cc32)cc1
# Experiment: dose-dependent thermal stabilisation call (2D-TPP, DLPTP, 10% FDR) (binary (1 = stabilised)); higher = stabilised by the compound
# Settings: system: HL-60 intact cells; concentration range 0.04-10 µM
row,Target,dose-dependent thermal stabilisation call
1,NDUFAF2 (UniProt Q8N183),inactive: 0
2,NDUFA5 (UniProt Q16718),inactive: 0
3,MTFMT (UniProt Q96DP5),inactive: 0
4,NARS2 (UniProt Q96I59),inactive: 0
5,NEU3 (UniProt Q9UQ49),inactive: 0
6,MYL6B (UniProt P14649),inactive: 0
7,MRPS5 (UniProt P82675),inactive: 0
8,NDUFA2 (UniProt O43678),inactive: 0
9,NEK1 (UniProt Q96PY6),inactive: 0
10,MUL1 (UniProt Q969V5),inactive: 0
11,NOL10 (UniProt Q9BSC4),inactive: 0
12,NAPG (UniProt Q99747),inactive: 0
13,NAGLU (UniProt P54802),inactive: 0
14,NBEAL2 (UniProt Q6ZNJ1),inactive: 0
15,NIT2 (UniProt Q9NQR4),inactive: 0
16,MTA1 (UniProt Q13330),inactive: 0
17,NDOR1 (UniProt Q9UHB4),inactive: 0
18,NFX1 (UniProt Q12986),inactive: 0
19,NOL11 (UniProt Q9H8H0),inactive: 0

row,Target,dose-dependent thermal stabilisation call
1,N6AMT2 (UniProt Q8WVE0),inactive: 0
2,NME1-NME2 (UniProt P15531),inactive: 0
3,NOP2 (UniProt P46087),inactive: 0
4,MYH10 (UniProt P35580),inactive: 0
5,NANS (UniProt Q9NR45),inactive: 0
6,NLRC4 (UniProt Q9NPP4),inactive: 0
7,NCBP2 (UniProt P52298),inactive: 0
8,NAAA (UniProt Q02083),inactive: 0
9,NHEJ1 (UniProt Q9H9Q4),inactive: 0
10,NOLC1 (UniProt Q14978),inactive: 0
11,NOP16 (UniProt Q9Y3C1),inactive: 0
12,NAP1L1 (UniProt P55209),inactive: 0
13,NONO (UniProt Q15233),inactive: 0
14,NOL9 (UniProt Q5SY16),inactive: 0
15,NIPSNAP1 (UniProt Q9BPW8),inactive: 0
16,NCAPG (UniProt Q9BPX3),inactive: 0
17,NOP14 (UniProt P78316),inactive: 0
18,NNT (UniProt Q13423),inactive: 0
19,NAPEPLD (UniProt Q6IQ20),inactive: 0
